Measured values taken from article PMC5493634, “Intermolecular steric inhibition of Ephexin4 is relieved by Elmo1” (Scientific Reports, 2017).
These are yes or no findings as the source states them, for the method shown. In cells and extracts the contact can be indirect. Binding calls can cover weak binding; strength is not graded here. Blank lines part the entries; values can stand above or below the substance they belong to.

Amino acid sequences for entries named in this document (tags omitted). A change or cut given only in a name is not applied to a line headed by its entry.
UniProt Q92556: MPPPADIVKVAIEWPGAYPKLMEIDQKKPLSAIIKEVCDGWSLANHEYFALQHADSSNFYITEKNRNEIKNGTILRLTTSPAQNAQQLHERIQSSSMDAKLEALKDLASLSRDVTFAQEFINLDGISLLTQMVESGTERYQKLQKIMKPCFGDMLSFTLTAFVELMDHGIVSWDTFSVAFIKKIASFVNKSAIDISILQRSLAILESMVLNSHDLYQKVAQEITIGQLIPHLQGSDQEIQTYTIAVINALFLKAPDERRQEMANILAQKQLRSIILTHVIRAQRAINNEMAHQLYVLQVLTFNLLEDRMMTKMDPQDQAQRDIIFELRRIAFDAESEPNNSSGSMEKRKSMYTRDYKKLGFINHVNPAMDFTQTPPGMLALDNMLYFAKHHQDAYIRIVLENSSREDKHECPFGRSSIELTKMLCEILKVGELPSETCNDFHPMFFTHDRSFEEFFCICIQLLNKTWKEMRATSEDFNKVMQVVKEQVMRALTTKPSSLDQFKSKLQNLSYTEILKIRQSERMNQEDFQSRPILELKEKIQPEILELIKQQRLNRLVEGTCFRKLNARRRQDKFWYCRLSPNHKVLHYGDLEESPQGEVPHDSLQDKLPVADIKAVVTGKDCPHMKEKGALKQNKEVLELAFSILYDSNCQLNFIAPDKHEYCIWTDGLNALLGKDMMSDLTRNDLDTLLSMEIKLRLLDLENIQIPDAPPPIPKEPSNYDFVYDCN

Tests used:
[1] = target: T1, N20 region of Ephexin4 (amino acids 224–378) (UniProt Q5VV41); assay: pull-down; 293T cells co-transfected; lysates precipitated with glutathione–Sepharose beads, 2 h at 4 °C; co-precipitated proteins detected with anti-GFP (Fig. 3a,d) or anti-FLAG (Fig. 3b,c, 4a)
T1 sequence: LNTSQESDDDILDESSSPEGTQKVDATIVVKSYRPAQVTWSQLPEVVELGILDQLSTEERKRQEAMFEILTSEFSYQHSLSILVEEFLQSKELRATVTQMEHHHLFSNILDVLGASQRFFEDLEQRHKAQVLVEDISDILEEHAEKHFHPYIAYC

SH3 domain of Ephexin4 = target: T2, SH3 domain of Ephexin4 (UniProt Q5VV41); assay: as above
T2 sequence: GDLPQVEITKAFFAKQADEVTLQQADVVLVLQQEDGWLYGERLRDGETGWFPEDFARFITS

[2] = target: T3, Ephexin4 (full-length, wild type) (UniProt Q5VV41); assay: co-IP; 293T cells co-transfected; anti-FLAG immunoprecipitation of lysates (1% Triton X-100, 150 mM NaCl, pH 7.6), 2 h at 4 °C; anti-GFP immunoblot (Fig. 2a-c)
T3 sequence: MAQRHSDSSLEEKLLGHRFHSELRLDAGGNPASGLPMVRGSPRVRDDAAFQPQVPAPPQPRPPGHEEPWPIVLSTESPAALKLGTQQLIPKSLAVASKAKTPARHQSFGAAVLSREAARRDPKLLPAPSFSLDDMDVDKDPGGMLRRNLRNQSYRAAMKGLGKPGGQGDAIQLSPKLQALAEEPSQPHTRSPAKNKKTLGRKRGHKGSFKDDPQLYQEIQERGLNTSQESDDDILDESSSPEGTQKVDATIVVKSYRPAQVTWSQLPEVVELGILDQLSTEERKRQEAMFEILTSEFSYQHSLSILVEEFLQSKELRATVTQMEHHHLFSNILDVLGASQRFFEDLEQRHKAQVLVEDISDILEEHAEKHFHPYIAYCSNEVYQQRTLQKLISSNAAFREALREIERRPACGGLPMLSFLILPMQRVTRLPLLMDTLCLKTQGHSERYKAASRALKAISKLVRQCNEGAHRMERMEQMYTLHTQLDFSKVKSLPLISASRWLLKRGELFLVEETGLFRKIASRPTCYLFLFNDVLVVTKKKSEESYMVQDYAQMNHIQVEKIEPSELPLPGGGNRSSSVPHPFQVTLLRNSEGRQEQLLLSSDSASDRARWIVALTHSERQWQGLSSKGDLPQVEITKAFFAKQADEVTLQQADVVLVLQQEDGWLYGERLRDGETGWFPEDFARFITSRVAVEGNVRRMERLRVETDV

- binding [1]: binds
Substance: N-terminus of Elmo1 (from UniProt Q92556) (domain or fragment)

- binding (SH3 domain of Ephexin4): binds
Substance: C-terminus of Elmo1 (from UniProt Q92556) (domain or fragment)

- binding [2]: binds weakly
Substance: Ephexin4^ΔSH3 (Ephexin4 mutant lacking the SH3 domain) (domain or fragment)
